In this test the target is GFP-strep tagged mouse UNC80 (mouse) (UniProt Q8BLN6). The experiment in a line: co-purification on Streptactin affinity beads; HA-UNC79 and GFP-strep UNC80 co-expressed in FreeStyle 293F cells by BacMam viruses and purified together by the strep tag of UNC80.

Sequences of proteins named here, by UniProt entry; tags and fusion partners are left off. A change or cut given only in a name is not applied to a line headed by its entry.
UniProt Q8BLN6: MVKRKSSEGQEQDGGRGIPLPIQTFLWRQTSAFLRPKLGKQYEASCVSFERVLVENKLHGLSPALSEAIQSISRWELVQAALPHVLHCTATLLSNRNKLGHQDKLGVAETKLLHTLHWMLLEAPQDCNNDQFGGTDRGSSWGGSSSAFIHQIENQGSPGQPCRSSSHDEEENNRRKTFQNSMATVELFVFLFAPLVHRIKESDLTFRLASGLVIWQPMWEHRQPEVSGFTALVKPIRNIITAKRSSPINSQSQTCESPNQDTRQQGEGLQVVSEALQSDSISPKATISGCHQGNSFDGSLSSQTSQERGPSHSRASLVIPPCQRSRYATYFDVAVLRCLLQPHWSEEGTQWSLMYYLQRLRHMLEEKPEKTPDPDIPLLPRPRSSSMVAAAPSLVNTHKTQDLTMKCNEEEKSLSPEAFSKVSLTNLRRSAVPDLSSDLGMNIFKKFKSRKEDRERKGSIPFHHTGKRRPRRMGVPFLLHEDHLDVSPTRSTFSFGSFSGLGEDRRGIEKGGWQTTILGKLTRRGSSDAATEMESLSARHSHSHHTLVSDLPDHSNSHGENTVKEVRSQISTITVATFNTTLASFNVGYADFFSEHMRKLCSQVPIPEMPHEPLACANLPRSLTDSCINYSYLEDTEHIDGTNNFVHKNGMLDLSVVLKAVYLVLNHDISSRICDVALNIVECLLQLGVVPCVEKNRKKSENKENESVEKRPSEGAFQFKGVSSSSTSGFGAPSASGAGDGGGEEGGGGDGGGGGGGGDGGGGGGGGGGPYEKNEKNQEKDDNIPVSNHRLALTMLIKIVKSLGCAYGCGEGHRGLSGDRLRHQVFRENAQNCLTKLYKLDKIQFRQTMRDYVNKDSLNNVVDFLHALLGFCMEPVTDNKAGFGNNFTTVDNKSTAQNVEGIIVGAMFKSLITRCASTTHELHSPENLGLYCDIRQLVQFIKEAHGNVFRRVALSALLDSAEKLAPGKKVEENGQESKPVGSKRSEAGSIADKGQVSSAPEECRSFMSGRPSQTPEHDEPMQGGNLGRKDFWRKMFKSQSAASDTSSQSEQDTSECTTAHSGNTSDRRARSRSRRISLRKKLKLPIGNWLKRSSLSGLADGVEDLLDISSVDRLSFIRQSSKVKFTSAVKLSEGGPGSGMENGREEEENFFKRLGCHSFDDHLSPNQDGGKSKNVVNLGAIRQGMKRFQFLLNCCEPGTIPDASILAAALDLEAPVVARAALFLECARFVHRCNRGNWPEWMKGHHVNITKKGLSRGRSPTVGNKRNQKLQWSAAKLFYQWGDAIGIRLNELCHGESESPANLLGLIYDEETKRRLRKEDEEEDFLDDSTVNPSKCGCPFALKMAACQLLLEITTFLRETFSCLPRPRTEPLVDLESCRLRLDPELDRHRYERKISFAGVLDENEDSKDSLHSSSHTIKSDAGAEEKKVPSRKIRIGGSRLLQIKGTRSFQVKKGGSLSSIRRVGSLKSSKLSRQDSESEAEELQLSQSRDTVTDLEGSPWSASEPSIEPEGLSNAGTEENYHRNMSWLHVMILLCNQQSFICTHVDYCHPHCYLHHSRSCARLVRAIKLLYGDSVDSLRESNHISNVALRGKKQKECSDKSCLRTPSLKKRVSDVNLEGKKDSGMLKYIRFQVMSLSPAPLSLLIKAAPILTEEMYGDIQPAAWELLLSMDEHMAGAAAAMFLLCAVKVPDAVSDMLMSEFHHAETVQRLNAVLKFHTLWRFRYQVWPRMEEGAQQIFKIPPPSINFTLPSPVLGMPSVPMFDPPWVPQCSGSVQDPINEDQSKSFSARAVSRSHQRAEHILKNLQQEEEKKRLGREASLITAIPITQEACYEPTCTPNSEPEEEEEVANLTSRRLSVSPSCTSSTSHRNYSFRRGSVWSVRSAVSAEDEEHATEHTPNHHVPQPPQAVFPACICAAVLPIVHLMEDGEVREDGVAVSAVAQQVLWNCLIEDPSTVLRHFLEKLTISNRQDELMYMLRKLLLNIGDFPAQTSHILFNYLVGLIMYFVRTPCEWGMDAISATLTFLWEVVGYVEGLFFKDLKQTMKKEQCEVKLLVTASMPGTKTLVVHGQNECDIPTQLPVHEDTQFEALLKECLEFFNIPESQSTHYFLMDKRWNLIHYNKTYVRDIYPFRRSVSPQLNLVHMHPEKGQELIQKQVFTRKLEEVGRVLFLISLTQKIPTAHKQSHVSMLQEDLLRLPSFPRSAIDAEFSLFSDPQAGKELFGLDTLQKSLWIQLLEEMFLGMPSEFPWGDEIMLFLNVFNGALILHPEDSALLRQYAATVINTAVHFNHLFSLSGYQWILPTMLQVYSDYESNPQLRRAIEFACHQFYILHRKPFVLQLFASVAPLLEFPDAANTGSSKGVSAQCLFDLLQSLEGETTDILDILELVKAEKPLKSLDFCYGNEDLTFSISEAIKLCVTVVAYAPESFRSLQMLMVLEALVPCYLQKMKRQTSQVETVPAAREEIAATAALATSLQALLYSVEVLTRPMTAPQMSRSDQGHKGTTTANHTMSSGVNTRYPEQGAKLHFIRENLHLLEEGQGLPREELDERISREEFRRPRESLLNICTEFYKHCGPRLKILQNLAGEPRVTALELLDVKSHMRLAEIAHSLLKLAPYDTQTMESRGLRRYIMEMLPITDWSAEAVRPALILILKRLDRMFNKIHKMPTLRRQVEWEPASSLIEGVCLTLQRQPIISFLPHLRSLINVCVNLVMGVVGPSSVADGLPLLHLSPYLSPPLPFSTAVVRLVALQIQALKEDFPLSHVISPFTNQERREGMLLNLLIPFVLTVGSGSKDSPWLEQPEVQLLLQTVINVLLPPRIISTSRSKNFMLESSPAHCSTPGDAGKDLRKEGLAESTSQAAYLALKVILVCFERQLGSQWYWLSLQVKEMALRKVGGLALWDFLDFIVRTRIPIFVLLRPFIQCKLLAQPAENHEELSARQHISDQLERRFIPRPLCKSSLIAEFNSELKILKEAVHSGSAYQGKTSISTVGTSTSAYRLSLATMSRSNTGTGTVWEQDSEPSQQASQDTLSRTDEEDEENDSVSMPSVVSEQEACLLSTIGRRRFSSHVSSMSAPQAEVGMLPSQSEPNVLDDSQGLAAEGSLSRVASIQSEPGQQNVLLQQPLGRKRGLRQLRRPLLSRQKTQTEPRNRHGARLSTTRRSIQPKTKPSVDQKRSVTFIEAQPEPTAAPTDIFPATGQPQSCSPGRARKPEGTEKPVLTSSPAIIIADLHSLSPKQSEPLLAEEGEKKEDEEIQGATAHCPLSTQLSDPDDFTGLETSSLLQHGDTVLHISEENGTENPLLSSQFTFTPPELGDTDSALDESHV
UniProt Q0KK59: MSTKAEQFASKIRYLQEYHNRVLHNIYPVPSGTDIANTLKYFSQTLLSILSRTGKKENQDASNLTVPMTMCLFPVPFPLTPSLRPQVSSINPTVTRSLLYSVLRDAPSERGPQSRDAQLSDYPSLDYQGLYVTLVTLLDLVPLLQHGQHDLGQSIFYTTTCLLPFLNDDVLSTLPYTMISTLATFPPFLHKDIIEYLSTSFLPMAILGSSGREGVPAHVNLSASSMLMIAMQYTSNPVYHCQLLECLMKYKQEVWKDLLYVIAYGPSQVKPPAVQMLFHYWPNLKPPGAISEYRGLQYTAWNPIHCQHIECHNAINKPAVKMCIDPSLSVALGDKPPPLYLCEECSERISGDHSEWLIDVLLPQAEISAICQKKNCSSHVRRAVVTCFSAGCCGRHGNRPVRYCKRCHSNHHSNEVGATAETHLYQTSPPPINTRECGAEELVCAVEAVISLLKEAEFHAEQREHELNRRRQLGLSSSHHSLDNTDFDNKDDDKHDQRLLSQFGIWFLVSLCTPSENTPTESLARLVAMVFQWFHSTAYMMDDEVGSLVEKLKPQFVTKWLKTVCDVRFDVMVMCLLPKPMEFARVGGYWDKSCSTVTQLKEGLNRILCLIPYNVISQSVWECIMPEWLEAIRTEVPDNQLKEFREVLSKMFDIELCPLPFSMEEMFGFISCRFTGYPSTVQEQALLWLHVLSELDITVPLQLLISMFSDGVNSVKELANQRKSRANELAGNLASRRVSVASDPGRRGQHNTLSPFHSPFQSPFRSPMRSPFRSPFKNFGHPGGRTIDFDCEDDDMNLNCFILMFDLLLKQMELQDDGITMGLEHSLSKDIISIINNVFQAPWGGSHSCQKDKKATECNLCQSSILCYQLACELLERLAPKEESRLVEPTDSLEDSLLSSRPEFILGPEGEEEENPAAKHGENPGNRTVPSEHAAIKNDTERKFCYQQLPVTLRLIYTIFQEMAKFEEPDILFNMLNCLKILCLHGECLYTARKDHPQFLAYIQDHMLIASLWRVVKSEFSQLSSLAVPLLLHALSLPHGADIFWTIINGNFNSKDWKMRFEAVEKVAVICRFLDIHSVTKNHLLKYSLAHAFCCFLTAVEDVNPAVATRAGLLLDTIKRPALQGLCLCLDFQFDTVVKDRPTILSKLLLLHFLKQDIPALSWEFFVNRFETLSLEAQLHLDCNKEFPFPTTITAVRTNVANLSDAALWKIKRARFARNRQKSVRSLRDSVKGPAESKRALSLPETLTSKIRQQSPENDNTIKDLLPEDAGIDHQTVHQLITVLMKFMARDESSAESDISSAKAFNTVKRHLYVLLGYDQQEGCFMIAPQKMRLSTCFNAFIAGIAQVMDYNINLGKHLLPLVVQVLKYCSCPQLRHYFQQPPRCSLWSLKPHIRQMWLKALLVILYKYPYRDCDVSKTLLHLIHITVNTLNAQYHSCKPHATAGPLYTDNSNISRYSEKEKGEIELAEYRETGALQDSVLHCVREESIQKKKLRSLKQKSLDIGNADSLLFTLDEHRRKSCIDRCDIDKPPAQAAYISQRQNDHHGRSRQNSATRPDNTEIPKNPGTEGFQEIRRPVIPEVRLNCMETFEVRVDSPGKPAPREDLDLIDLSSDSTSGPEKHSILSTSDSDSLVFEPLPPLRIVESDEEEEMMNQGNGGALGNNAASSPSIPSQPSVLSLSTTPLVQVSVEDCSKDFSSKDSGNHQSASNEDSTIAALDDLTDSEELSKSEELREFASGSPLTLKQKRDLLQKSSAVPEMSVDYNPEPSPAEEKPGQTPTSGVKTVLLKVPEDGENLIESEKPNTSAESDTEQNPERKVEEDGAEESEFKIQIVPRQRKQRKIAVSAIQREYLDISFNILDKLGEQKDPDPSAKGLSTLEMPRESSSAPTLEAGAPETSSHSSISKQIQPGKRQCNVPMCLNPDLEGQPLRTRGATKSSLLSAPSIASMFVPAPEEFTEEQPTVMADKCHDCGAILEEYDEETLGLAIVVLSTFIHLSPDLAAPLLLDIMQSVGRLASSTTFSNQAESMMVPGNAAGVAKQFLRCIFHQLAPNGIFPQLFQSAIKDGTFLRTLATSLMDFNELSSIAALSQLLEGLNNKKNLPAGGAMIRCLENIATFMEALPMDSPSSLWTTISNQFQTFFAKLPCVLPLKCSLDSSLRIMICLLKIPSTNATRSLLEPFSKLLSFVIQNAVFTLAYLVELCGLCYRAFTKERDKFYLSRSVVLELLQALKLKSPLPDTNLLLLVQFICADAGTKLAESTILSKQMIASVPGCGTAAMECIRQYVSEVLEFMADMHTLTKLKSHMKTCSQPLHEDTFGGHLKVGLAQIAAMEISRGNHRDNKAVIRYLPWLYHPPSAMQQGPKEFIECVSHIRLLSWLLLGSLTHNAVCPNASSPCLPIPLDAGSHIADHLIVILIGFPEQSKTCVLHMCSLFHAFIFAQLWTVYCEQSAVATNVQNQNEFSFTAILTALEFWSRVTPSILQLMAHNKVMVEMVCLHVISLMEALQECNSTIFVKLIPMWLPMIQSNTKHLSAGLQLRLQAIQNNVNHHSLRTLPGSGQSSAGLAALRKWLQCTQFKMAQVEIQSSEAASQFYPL

These are yes or no findings as the source states them, for the method shown. In cells and extracts the contact can be indirect. A result given as binding can be weak or reduced; the word gives no strength.

In the case of “mouse UNC79 with an N-terminal HA tag (from UniProt Q0KK59)”, the binding result was “binds”.
